According to patent US20090233850A1:
Results are given in words; binding and its absence hold for the method and conditions named. Some binding calls cover weakened binding; strength is not graded here. Tags and fused reporters may be left off the sequences shown.

Legend:
[1] = target: recombinant monomeric HIV-1 YU2 gp120, produced in Drosophila S2 cells (HIV-1 YU2) (UniProt P35961); experiment: competition ELISA on plate-adsorbed YU2 gp120; competitor mAb 2G12 at 50 ug/ml; percent of control without L5
[2] = target: recombinant monomeric HIV-1 YU2 gp120, produced in Drosophila S2 cells (HIV-1 YU2) (UniProt P35961); experiment: competition ELISA on plate-adsorbed YU2 gp120; blocked ligand sCD4 at 0.5 ug/ml, detected with anti-CD4; percent of uninhibited control
[3] = target: recombinant monomeric HIV-1 YU2 gp120, produced in Drosophila S2 cells (HIV-1 YU2) (UniProt P35961); experiment: ELISA, 100 ng YU2 gp120 adsorbed on the plate, serial dilutions of L5, detection with polyclonal anti-CVN, BSA background subtracted
[4] = target: recombinant monomeric HIV-1 YU2 gp120, produced in Drosophila S2 cells (HIV-1 YU2) (UniProt P35961); experiment: sCD4 and 17b competition ELISAs on adsorbed YU2 gp120
[5] = target: recombinant monomeric HIV-1 YU2 gp120, produced in Drosophila S2 cells (HIV-1 YU2) (UniProt P35961); experiment: SPR (Biacore 3000), YU2 gp120 amine-coupled to a CM5 chip, L5 as analyte, referenced to a 2B6R antibody surface
[6] = target: recombinant monomeric HIV-1 YU2 gp120, produced in Drosophila S2 cells (HIV-1 YU2) (UniProt P35961); experiment: ELISA, adsorbed YU2 gp120, polyclonal anti-CVN detection
[7] = target: recombinant monomeric HIV-1 YU2 gp120, produced in Drosophila S2 cells (HIV-1 YU2) (UniProt P35961); experiment: competition ELISA on plate-adsorbed YU2 gp120; blocked ligand mAb 17b at 2 ug/ml; percent of uninhibited control
[8] = target: recombinant monomeric HIV-1 YU2 gp120, produced in Drosophila S2 cells (HIV-1 YU2) (UniProt P35961); experiment: competition ELISA on plate-adsorbed YU2 gp120; competitor mAb F105 at a 1:20,000 dilution; percent of control without L5
[9] = target: recombinant monomeric HIV-1 YU2 gp120, produced in Drosophila S2 cells (HIV-1 YU2) (UniProt P35961); experiment: ELISA and SPR on gp120

Measured: binding

B1: L5 chimera (CVN-12p1): CVN, linker of five Gly4Ser repeats, 12p1, C-terminal hexa-histidine tag (protein)
chain: LGKFSQTCYNSAIQGSVLTSTCERTNGGYNTSSIDLNSVIENVDGSLKWQPSNFIETCRNTQLAGSSELAAECKTRAQQFVSTKINLDDHIANIDGTLKYEGSGGGGSGGGGSGGGGSGGGGSGGGGSRINNIPWSEAMMHHHHHH
binds: all assays above
